Measured values taken from USRE44022 (COMMISSARIAT A L ENERGIE ATOMIQUE, dated 2013).
No constants are given. Whether binding was seen depends on the method and setting. Some binding calls cover weakened binding; strength is not graded here.

Sequences of proteins named here, by UniProt entry; tags and fusion partners are left off. Residues count along the entry.
UniProt P35968, residues 20-1356: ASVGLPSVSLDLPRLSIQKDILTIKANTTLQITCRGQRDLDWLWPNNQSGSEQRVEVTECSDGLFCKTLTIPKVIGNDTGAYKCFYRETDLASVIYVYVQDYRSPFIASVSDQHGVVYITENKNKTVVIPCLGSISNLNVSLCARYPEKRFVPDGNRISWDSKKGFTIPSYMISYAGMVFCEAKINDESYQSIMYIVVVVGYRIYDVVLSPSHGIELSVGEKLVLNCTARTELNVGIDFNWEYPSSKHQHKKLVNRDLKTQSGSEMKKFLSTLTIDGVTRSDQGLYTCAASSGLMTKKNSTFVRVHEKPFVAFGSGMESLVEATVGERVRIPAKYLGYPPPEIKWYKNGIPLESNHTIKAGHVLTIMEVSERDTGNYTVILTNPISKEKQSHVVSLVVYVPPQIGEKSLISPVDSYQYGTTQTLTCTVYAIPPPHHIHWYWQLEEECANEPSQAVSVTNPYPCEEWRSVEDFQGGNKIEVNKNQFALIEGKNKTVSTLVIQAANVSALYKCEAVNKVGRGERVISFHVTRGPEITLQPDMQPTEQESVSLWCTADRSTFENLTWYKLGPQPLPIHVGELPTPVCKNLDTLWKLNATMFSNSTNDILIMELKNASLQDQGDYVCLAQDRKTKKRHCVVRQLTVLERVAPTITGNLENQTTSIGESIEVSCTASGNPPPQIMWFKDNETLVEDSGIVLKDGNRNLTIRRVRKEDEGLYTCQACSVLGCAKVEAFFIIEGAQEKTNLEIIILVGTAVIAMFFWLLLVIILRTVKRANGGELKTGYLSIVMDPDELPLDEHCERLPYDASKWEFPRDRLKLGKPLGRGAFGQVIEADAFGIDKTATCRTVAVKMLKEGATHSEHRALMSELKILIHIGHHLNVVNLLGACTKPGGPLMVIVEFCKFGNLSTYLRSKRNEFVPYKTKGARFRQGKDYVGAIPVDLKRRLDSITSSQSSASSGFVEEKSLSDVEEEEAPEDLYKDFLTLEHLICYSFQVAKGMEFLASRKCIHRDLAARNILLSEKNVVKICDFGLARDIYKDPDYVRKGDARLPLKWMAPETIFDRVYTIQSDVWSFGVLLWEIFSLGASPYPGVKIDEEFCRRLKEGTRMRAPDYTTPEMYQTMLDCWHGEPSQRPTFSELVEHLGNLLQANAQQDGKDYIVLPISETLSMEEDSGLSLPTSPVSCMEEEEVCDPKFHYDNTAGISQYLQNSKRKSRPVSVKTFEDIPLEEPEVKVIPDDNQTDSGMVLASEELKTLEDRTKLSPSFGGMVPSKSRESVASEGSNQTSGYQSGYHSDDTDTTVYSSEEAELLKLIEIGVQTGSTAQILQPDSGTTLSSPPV

Biological target: KDR receptor (VEGFR-2) (UniProt P35968)
Experiment: displacement of 125I-VEGF from CHOm VEGFR2 cells

Binder	binding
PRIKPHQG (cyclic (cyclo, ends of the linear peptide coupled), Cyclopeptide) [P17]	binds
GRIKPH (cyclic (cyclo, ends of the linear peptide coupled), Cyclopeptide; also called cyclo(Gly-Arg-Ile-Lys-Pro-His)) [P24]	binds
